# In all, about 320,000 compounds went through this assay and about 22,000 (6.9%) were called active. The shares of active, inactive and inconclusive entries below differ from those in the screen. Calls follow the shape of the dose curve; as a rule, active = well fitted inhibition curve with a large enough effect; inconclusive = small, poorly fitted or top-dose-only effect, or another doubt; inactive = no such curve, though single readings can be large or run the other way. Potencies of inconclusive entries are doubtful fits and often do not repeat.
# Test: Primary qHTS for delayed death inhibitors of the malarial parasite plastid, 96 hour incubation
# Settings: P. falciparum luciferase reporter growth; series mostly up to 28.7 µM
# Summary of the method: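 Luminescence readout: decreased luciferase signal marks inhibited growth of reporter-expressing P. falciparum in infected red cells (2% hematocrit, 0.05% parasitemia final), exposed to compound two generations (96 h, 37 C, 5% CO2).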
# Potency is read from the fitted curve at half-maximal effect.
row,Structure (SMILES),Potency
1,CCOc1ccc(N(Cc2ccc(C(=O)O)cc2)S(=O)(=O)c2ccc(C)cc2)cc1,"inconclusive: 3.29 µM [inhibitor, full curve, poor fit]"
2,COc1ccc(OC)c(-n2c(SCC(=O)Nc3cc(C)on3)nnc2-c2c[nH]c3ccccc23)c1,active: 4.65 µM
3,O=C(CCNC(=O)c1ccc(Br)cc1)Nc1cccc(S(=O)(=O)N2CCCC2)c1,"inconclusive: 14.7 µM [inhibitor, single point]"
4,Cc1cc(N2CCN(c3ccccc3)CC2)n2c(n1)nc1ccccc12,"inconclusive: 18.5 µM [inhibitor, single point]"
5,Cc1ccc(S(=O)(=O)N2CCCCC2)cc1NC(=O)CSc1nccn1C,inactive
6,CCCOc1ccc(-c2c(=O)n(O)c3ccccc3[n+]2[O-])cc1,inactive
7,O=C(Nc1cccc(-n2cnnn2)c1)c1ccccc1Br,"inconclusive: 18.5 µM [inhibitor, single point]"
8,CC(=O)Nc1ccc(NC(=O)Nc2ccccc2C)cc1,inactive
9,CCOc1ccc(NC(=O)C/C(C)=N/NC(=O)Cc2cccs2)cc1,inactive
10,C/C=C(\C)C(=O)NCCN1C2=NC[C@H](Cc3ccc(O)cc3)N2C[C@@H]1Cc1ccc(OC)cc1,"inconclusive: 8.28 µM [inhibitor, partial curve, poor fit]"
11,O=C(Nc1nnc(-c2ccc(F)cc2)o1)c1ccc(S(=O)(=O)N2CCOCC2)cc1,active: 3.29 µM
12,CCn1cc(C(=O)NCC(=O)NC(C)(C)CO)c(=O)c2cc3c(cc21)OCO3,inactive
13,CC(C)CN(CC(C)C)CC(O)COc1ccccc1Br (stereo unspecified),active: 3.29 µM
14,Cc1sc2ncnc(N3CCC(C(=O)Nc4nc5ccc(Cl)cc5s4)CC3)c2c1C,inactive
15,Cc1cccc(NC(=S)Nn2cnnc2)c1C,"inconclusive: 8.28 µM [inhibitor, partial curve, poor fit]"
16,Cc1ccccc1C1=NCC(=O)N(CC(=O)N2CCCCC2)c2sc(C)c(C)c21,active: 13.1 µM
17,COc1cccc(N=Nc2c(N)[nH]n3c(=O)c4c(nc23)CCCC4)c1,"inconclusive: 10.4 µM [inhibitor, partial curve]"
18,COc1ccc(C(C)=O)cc1COC(=O)c1cccnc1SC,inactive
19,O=C(NCc1ccc(Cl)cc1)C1CCC(CNc2c(N3CCOCC3)c(=O)c2=O)CC1 (stereo unspecified),"inconclusive: 18.5 µM [inhibitor, single point]"
20,CN(C)c1ccc(C(=O)c2ccc(N(C)C)cc2)cc1,inactive
21,CN(C)C(=O)c1ccc(NC(=O)c2cc(-c3ccco3)nc3ccccc23)cc1,"inconclusive: 18.5 µM [inhibitor, single point]"

# Two of these compounds in a different format.
row	Structure (SMILES)	Potency
20	CN(C)c1ccc(C(=O)c2ccc(N(C)C)cc2)cc1	inactive
21	CN(C)C(=O)c1ccc(NC(=O)c2cc(-c3ccco3)nc3ccccc23)cc1	inconclusive: 18.5 µM [inhibitor, single point]

# From PubChem BioAssay AID504834 (National Center for Advancing Translational Sciences (NCATS), 2011)
